Values of other authors as cited in patent US12403130B2, “Pharmaceutical combinations for treating cancer” (Purdue Pharmaceutical Products L.P., priority 2014, dated 2025).
Some of these results come from one statement about several compounds together.

Test system: Vk*MYC multiple myeloma
Conditions: previously reported; cited from earlier work

SMILES | partial response rate
CC(C)(C)c1cnc(CSc2cnc(NC(=O)C3CCNCC3)s2)o1 [SNS-032] | greater than 20%
CCCCCCCCCCCCCCCCCCOP(=O)([O-])OC1CC[N+](C)(C)CC1 [perifosine] | greater than 20%
